Laboratory results published in the supplement of paper PMC12823440, “Inhibitors supercharge kinase turnover through native proteolytic circuits” (Nature, 2025).
This is one part of the list. Hit calls seldom repeat between salt and free forms of one compound.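 Kinases, fused to nanoluciferase, were expressed in K562 cells; luminescence was measured every 4 h from 2 to 18 h as percent of control (DMSO = 100%, positive control = 0%). A time point is decreased if signal falls significantly (2 sigma). Hits were called by the authors by a rule that is not shown; the count of time points alone does not decide it.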

By UniProt entry, the sequences of proteins in these tests, tags left out. Where a name states a change or a piece, a line headed by the entry shows the natural chain unless it says otherwise.
UniProt Q96KB5: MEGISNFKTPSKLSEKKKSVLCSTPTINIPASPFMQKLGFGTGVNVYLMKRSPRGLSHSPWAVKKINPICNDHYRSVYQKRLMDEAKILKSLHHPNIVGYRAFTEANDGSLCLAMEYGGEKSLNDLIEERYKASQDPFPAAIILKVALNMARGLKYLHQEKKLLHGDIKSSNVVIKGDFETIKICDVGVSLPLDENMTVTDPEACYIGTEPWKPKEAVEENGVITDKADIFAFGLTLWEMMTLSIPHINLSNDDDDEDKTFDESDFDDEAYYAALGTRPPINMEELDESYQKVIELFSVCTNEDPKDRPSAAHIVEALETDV

Each molecule was assayed against PBK (UniProt Q96KB5) (assay: number of time points (of 5) at which kinase-Nluc abundance scored as decreased, DMSO-normalised (count); higher = more persistent destabilization). Details: K562; 2-18 h.

Row | SMILES | number of time points
1 | C[C@H]1CC[C@]2(NC1)O[C@H]1C[C@H]3[C@@H]4CC[C@H]5C[C@@H](O[C@@H]6O[C@H](CO)[C@H](O[C@@H]7O[C@H](CO)[C@@H](O)[C@H](O[C@@H]8OC[C@@H](O)[C@H](O)[C@H]8O)[C@H]7O[C@@H]7O[C@H](CO)[C@@H](O)[C@H](O)[C@H]7O)[C@H](O)[C@H]6O)CC[C@]5(C)[C@H]4CC[C@]3(C)[C@H]1[C@@H]2C [Tomatine] (2.5 µM) | 0
2 | CCCCNc1nc(N)c2[nH]c(=O)n(Cc3ccc(C)nc3)c2n1 (10 µM) | 0
3 | C[C@H](CCC(=O)O)C[C@H](C)C[C@H](C)C(=O)/C=C(\O)[C@H](C)C[C@H](C)C/C=C/[C@@H](C)[C@@H](O)[C@@H](C)[C@@H](O)C[C@@H]1CC[C@@](C)([C@H]2CC[C@@](C)([C@@H](C)O)O2)O1 [Ionomycin (calcium)] (2.5 µM) | 0
4 | CCOC(=O)c1c(/C(C#N)=C\N)c2ccc(Cl)c(Cl)c2n1C (10 µM) | 0
5 | CC(=O)OC(C)(C)/C=C/C(=O)[C@](C)(O)[C@H]1[C@H](O)C[C@@]2(C)[C@@H]3CC=C4[C@@H](C=C(O)C(=O)C4(C)C)[C@]3(C)C(=O)C[C@]12C [Cucurbitacin E] (2.5 µM) | 0
6 | O=C1C=CC[C@@H]2[C@H]3CCCN4CCC[C@@H](CN12)[C@@H]34 [Sophocarpine (monohydrate)] (2.5 µM) | 0
7 | C=CC(=O)Nc1ccc2[nH]c(=O)n(C3CCN(Cc4ccc(-c5nc6cc[nH]c(=O)c6cc5-c5ccccc5)cc4)CC3)c2c1 [Borussertib] (10 µM) | 0
